Measurements from “University of Dundee, Small-Polar-MMV Screening Library” (2021), ChEMBL document CHEMBL3988442.

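Whole-cell assay for inhibitors of Mycobacterium tuberculosis growth, labelled Cornell in the record; the read-out is not stated. The concentration is filed as 10 mM, unlikely as a test dose, so the dose is not known. The record gives no direction; compounds strong in two other growth screens of this library score well above the rest, so higher reads as stronger inhibition. Size under these conditions: about 53,000 compounds, about 900 of them at 50% or above in at least one test.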

Values are the deposited “Percent Effect”, in %.
The record does not define 0% and 100%; most values in the screen are far below 50% and negative numbers occur (in some assays of this library far below -100).
The compounds are a random part of those screened.

compound | effect
CC1(C)CN(C(=O)c2cc(F)cc3[nH]cnc23)CCS1 | 19.18
COc1ccnc(N2CCCN(c3nc(C4CC4)ns3)CC2)n1 | 6.104
CN(C)Cc1ccnc(C2CCCN2Cc2ccc(F)cn2)n1 (centres undefined) | -21.92
Cc1cc(C)n(-c2cncc(NCCNC(=O)c3cccnc3)n2)n1 | 19.52
CCCc1cc(CN(C)C2CSCCSC2)n[nH]1 | 22.07
c1cncc(CN2CCCC(c3nnc(-c4cnccn4)o3)C2)c1 (centres undefined) | 4.994
Nc1nnc(SCC(=O)NCC(O)c2ccccc2)s1 (centres undefined) | -2.435
O=C(Cc1ccccc1O)Nc1ccc(N2CCCC2)nc1 | -5.098
CCCOCC1CCN(C(=O)c2cnc(C)nc2O)C1 (centres undefined) | -48.62
Cc1ccoc1C(=O)N1CC(C(=O)N2CCOCC2)C2(CCOCC2)C1 (centres undefined) | -1.084
CC(=O)c1nn(-c2cccc(Cl)c2)c(C)c1C(C)=O | 24.81
CC1CN(C)CCN1C(=O)c1ccn(-c2cccc(Cl)c2)n1 (centres undefined) | -14.79
c1cc(C2CCN(Cc3nc(-c4ccsc4)no3)CC2)[nH]n1 | 3.067
Cc1cc(C)cc(CNCCS(=O)(=O)N2CCOCC2)c1 | -5.884
COC(=O)CCN(C)Cc1cc(Br)cs1 | -10.19
Cc1noc(C(C)C)c1C(=O)NCc1cccc(N(C)C)c1 | -20.34
COc1cccc(-n2cc(-c3ccnc(NC(CO)C(C)C)n3)cn2)c1 (centres undefined) | 2.752
O=C(O)C(F)(F)F.[H][C@@]12CN(Cc3nccs3)C[C@]1([H])C(=O)N(c1ccsc1)C2 | 13.54
O=C(NCCNc1ncccn1)N1CCSCC1 | 4.399
COc1cccc2c1OCC(CNC(=O)Cc1csc(C(C)=O)c1)C2 (centres undefined) | -19.94
COc1ccc(-c2cc(C3CCNCC3)ccn2)cc1.Cl | 2.208
O=C(COc1cccc2c1CCC2=O)NCCOc1ccccc1 | -9.725
CS(=O)(=O)c1nnc(NC(=O)CCc2cccc(Cl)c2)[nH]1 | -23.42
COC1CCN(C(=O)NCC(N)=O)CC(=O)N(C)c2ccccc21 (centres undefined) | -30.17
CN(C)C[C@@H]1CN(C(=O)Cc2cccc(O)c2)C[C@@H]1CO | -12.39
CCSc1ccc(NC(=O)NC(C)c2c(C)noc2C)cn1 (centres undefined) | 24.66
OC(COCc1ccco1)CN1CCC(Cn2cccn2)CC1 (centres undefined) | -18.82
O=C(CCc1ccccn1)N1CCSC2(CCCCC2)C1 | 40.53
O=C(c1cccc(S(=O)(=O)NCCc2ccccn2)c1)N1CCOCC1 | 8.014
CN(C)Cc1ccc(C2CCCCN2C(=O)c2cccc(CO)n2)cc1 (centres undefined) | -2.748
CC(C)N(Cc1ccccn1)C(=O)CN(C)C(=O)c1cccs1 | -11.76
NC(=O)c1ccc(OCC(=O)N2CCCC2c2ccc[nH]2)cc1 (centres undefined) | -7.16
CCn1ncc(Nc2[nH]cnc3nc(C)nc2-3)c1C | 15.95
Fc1cnc(N2CCCC3(CN(Cc4cccs4)CCO3)C2)nc1.O=C(O)C(F)(F)F (centres undefined) | 2.024
COCC(=O)N1CCCN(Cc2cc(O)c3ccccc3n2)CC1 | 10.97
CCC(C(=O)NC1CCN(S(C)(=O)=O)CC1)n1cccn1 (centres undefined) | -66.17
CCCNC(=O)Cn1cc(C#N)c(=O)c2cc(Br)ccc21 | -13.85
CCC(CC)C(CNC(=O)Nc1ccc(OC)cc1)N1CCOCC1 (centres undefined) | -7.097
CCc1nnc(CN(C)c2nc(C(C)C)nc3c2cnn3C)o1 | 5.371
CN(C)CCNCCC(Cc1ccccc1)C1CCOC(C)(C)C1.O=C(O)C(=O)O (centres undefined) | 14.85
[H][C@@]12CCCN1C[C@H](Cc1ccccc1)N(Cc1cnn(CCC)c1C)C2 | -4.513
CC1=C[C@@H](CN2CCC(CO)CC2)[C@H](C(C)C)C[C@H]1Cc1nnc(C)o1 | -4.324
COc1ccsc1C(=O)NC1CCN(c2ccc(C#N)cc2)CC1 | 18.67
CN(C)C(=O)C1(C)CN(Cc2cn(C)c3ccccc23)CCO1 (centres undefined) | 34.96
CCOCC1CCCN(C(=O)NCc2cn3c(C)cccc3n2)C1 (centres undefined) | 10.43
CN(C(=O)c1cccc(C#N)c1)c1nnc(C2CCOC2)s1 (centres undefined) | 37.45
Cl.O=C(NCCn1nc(C2CCNC2)c2cccnc21)C1CC1 (centres undefined) | -8.257
Cn1cc(CN2CCc3ncnc(N4CCCC4)c3CC2)cn1 | 16.56
Cc1nc(CN2CCCC(CCc3c(F)cccc3F)C2)c[nH]1 (centres undefined) | 23.29
CCNc1cc2c(nn1)CCN(C(=O)c1cc(C)no1)C2 | 10.55
O=C(CN1CC(n2cccn2)C1)NCCC1=CCCCC1 | 33.32
OC1(CNCCc2csc(-c3cccnc3)n2)CCNC1 (centres undefined) | 6.154
COc1ccc2c(c1)OCC(C(=O)NCc1ncc3c(n1)CCC3)C2 (centres undefined) | -5.206
NC(=O)COc1ccc(CNCc2ccc(Cl)c(F)c2)cc1 | 26.94
O=C(NCCc1cccs1)C1(N2CCCCC2)Cc2ccccc2C1 | 15.22
COc1ccc(C2=CCN(C(=O)C3CCC3)CC2)cc1 | 3.41
CN(CC(N)=O)Cc1ccc(F)cc1Cl | 8.917
c1ccc(Cc2nc(CNC3CCC4(CCNCC4)CC3)no2)cc1 | 19.52
CC(=O)N1CCOC2(CCCN(C(=O)c3ccc(Cl)cc3)C2)C1 (centres undefined) | 1.814
O=C(CCc1nc2cc(Br)cnc2[nH]1)NCc1cccnc1 | 21.12
Cc1ccc(-c2cccc(N3CCC(NC4CCOCC4)CC3)c2)cc1 | 33.16
COCCNC(=O)Cn1c(C)cc2nc(SC)n(CC(C)C)c(=O)c21 | -24.41
Cc1cc(NCCC(=O)NC2CCCCC2)nc(-c2ccncc2)n1 | -28.64
Cn1c(CO)cnc1SC(C(=O)NC1CC1)c1ccccc1 (centres undefined) | 20.97
CSC(C)C(=O)N1CCCN(Cc2cnn(C(C)C)c2)CC1 (centres undefined) | -1.074
CNS(=O)(=O)c1cccc(CNc2cc(C(F)(F)F)ccn2)c1 | 6.324

5 of the entries, repeated:

compound	effect
O=C(CN1CC(n2cccn2)C1)NCCC1=CCCCC1	33.32
O=C(c1cccc(S(=O)(=O)NCCc2ccccn2)c1)N1CCOCC1	8.014
CN(C)Cc1ccnc(C2CCCN2Cc2ccc(F)cn2)n1 (centres undefined)	-21.92
CN(C(=O)c1cccc(C#N)c1)c1nnc(C2CCOC2)s1 (centres undefined)	37.45
CCNc1cc2c(nn1)CCN(C(=O)c1cc(C)no1)C2	10.55